These are yes or no findings as the source states them, for the method shown. Binding can be weak; no strength is given. Tags and fused reporters may be left off the sequences shown.
Columns and labels:
[1] = target: SEC N-terminal tetratricopeptide repeats (TPRs 1-13), yeast two-hybrid bait (BD) (Arabidopsis thaliana); assay: two-hybrid
[2] = target: SPY N-terminal tetratricopeptide repeats (TPRs 1-11), yeast two-hybrid bait (BD) (Arabidopsis thaliana); assay: two-hybrid

B1: SPATULA (SPT), full-length, yeast two-hybrid prey (AD) (protein, UniProt Q9FUA4 1-373)
chain: MISQREEREEKKQRVMGDKKLISSSSSSSVYDTRINHHLHHPPSSSDEISQFLRHIFDRSSPLPSYYSPATTTTTASLIGVHGSGDPHADNSRSLVSHHPPSDSVLMSKRVGDFSEVLIGGGSGSAAACFGFSGGGNNNNVQGNSSGTRVSSSSVGASGNETDEYDCESEEGGEAVVDEAPSSKSGPSSRSSSKRCRAAEVHNLSEKRRRSRINEKMKALQSLIPNSNKTDKASMLDEAIEYLKQLQLQVQMLTMRNGINLHPLCLPGTTLHPLQLSQIRPPEATNDPLLNHTNQFASTSNAPEMINTVASSYALEPSIRSHFGPFPLLTSPVEMSREGGLTHPRLNIGHSNANITGEQALFDGQPDLKDRIT
[1]
  binding: binds
[2]
  binding: binds

Reference: paper doi:10.1101/2023.04.28.538690
